Reference: article PMC12685520
No constants are given. Whether binding was seen depends on the method and setting. In cells and extracts the contact can be indirect. A yes stands for co-enrichment or nearness to the bait. Other partners may have been found.

The chains behind the UniProt entries cited, without tags or fusion partners.
UniProt Q99623: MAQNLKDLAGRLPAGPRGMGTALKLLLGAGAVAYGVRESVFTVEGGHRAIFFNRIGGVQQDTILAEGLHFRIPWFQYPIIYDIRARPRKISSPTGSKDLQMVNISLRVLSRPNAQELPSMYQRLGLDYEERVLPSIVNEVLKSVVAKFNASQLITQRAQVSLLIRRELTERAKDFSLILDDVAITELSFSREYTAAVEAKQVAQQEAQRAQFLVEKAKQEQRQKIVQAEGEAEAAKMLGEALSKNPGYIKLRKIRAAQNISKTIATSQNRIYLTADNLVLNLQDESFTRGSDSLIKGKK
UniProt Q8IZ07: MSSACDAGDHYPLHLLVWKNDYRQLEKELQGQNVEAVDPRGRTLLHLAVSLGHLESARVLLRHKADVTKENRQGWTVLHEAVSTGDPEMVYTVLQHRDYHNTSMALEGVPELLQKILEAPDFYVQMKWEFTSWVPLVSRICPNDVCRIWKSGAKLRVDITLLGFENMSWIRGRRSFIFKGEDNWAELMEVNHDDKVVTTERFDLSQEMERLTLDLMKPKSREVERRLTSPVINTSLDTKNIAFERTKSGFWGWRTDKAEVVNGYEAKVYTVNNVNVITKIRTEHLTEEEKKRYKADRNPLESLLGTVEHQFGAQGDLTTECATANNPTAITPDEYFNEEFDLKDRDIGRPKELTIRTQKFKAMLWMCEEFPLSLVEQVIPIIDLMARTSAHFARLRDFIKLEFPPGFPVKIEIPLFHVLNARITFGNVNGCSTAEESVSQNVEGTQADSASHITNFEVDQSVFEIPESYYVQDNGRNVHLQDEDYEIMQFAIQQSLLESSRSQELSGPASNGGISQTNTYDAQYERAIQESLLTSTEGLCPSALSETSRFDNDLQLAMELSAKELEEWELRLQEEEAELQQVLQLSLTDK
UniProt O60260: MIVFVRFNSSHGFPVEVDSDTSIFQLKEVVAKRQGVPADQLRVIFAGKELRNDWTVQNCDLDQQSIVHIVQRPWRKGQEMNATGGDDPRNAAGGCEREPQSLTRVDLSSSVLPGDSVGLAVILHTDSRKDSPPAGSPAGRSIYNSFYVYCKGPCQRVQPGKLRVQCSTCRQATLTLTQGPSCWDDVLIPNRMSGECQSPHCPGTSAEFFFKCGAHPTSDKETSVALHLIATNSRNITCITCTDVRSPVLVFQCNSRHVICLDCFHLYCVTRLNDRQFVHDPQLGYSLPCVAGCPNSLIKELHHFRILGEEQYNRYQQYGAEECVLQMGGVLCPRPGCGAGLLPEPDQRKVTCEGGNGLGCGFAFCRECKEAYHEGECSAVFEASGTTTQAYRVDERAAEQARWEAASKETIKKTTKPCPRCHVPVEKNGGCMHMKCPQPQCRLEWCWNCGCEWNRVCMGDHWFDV

Target: PHB2-StrepII-FLAG (human) (UniProt Q99623)
Test: affinity purification with mass spectrometry; tandem purification of PHB2-StrepII-FLAG complexes (Strep-Tactin Superflow resin, then anti-FLAG M2 affinity gel) from HeLa Parkin cells treated with DMSO or OA for 4 h; 25 mM Hepes pH 7.4, 150 mM NaCl, 1 mM EDTA; label-free mass spectrometry

binding | Substance
binds | ankyrin repeat domain-containing protein 13 A (ANKRD13A), endogenous (from UniProt Q8IZ07 1-590)
binds | E3 ubiquitin-protein ligase Parkin (from UniProt O60260 1-465) (enzyme)
